Measurements: US20250064952A1 (ACCELERON PHARMA, published 2025)
Results are given in words; binding and its absence hold for the method and conditions named. Some entries that bind do so weakly or less than the wild type. Sequences can lack the tags named with a protein.

What was measured:
BMP9 [1] = target: T1, BMP9 (UniProt Q9UK05 320-429); assay: SPR (Biacore), ligands ranked by koff
T1 construct: also called GDF2
T1 sequence (looked up): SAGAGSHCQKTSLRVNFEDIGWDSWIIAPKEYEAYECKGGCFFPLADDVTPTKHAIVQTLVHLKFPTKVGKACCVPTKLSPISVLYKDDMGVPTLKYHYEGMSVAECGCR

BMP10 [2] = target: T2, BMP10 (UniProt O95393 317-424); assay: SPR (Biacore), ligands ranked by koff
T2 sequence (looked up): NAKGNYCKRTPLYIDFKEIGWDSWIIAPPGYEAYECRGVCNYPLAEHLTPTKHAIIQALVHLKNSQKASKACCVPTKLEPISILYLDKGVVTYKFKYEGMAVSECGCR

activin B [3] = target: T3, activin B (UniProt P09529 293-407); assay: SPR (Biacore), ligands ranked by koff
T3 sequence (looked up): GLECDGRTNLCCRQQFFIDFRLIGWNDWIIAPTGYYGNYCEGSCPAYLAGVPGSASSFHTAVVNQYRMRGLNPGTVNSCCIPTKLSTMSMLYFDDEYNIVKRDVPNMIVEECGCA

GDF3 [4] = target: T4, GDF3 (UniProt Q9NR23 251-364); assay: SPR (Biacore), ligands ranked by koff
T4 construct: also called VGR2
T4 sequence (looked up): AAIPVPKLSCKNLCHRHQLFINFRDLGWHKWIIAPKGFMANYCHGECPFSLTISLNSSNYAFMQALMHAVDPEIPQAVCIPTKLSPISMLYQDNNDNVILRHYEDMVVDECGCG

GDF8 [5] = target: T5, GDF8 (UniProt O14793 267-375); assay: SPR (Biacore), ligands ranked by koff
T5 construct: also called myostatin
T5 sequence (looked up): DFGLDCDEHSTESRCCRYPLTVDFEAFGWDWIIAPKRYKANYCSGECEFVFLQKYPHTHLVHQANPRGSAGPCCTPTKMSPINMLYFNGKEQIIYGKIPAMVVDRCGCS

GDF11 [6] = target: T6, GDF11 (UniProt O95390 299-407); assay: SPR (Biacore), ligands ranked by koff
T6 construct: also called BMP11
T6 sequence (looked up): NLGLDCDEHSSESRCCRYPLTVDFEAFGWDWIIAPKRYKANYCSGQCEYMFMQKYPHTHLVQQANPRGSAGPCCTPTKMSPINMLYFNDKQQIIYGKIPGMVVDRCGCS

BMP5 [7] = target: T7, BMP5 (UniProt P22003 317-454, limits assumed); assay: SPR (Biacore), ligands ranked by koff
T7 sequence (looked up): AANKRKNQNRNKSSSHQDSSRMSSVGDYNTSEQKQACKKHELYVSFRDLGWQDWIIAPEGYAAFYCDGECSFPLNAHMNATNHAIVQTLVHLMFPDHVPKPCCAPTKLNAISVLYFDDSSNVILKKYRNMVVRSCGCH

BMP6 [8] = target: T8, BMP6 (UniProt P22004 382-513, limits assumed); assay: SPR (Biacore), ligands ranked by koff
T8 sequence (looked up): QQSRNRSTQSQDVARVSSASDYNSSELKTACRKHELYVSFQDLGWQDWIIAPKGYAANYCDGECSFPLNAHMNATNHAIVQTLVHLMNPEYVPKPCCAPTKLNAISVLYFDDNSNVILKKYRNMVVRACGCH

BMP9 [9] = target: T1, BMP9; assay: SPR (Biacore), anti-Fc capture, ligand in flow
BMP10 [10] = target: T2, BMP10; assay: SPR (Biacore), anti-Fc capture, ligand in flow
activin B [11] = target: T3, activin B; assay: SPR (Biacore), anti-Fc capture, ligand in flow
GDF3 [12] = target: T4, GDF3; assay: SPR (Biacore), anti-Fc capture, ligand in flow
GDF8 [13] = target: T5, GDF8; assay: SPR (Biacore), anti-Fc capture, ligand in flow
GDF11 [14] = target: T6, GDF11; assay: SPR (Biacore), anti-Fc capture, ligand in flow
BMP6 [15] = target: T8, BMP6; assay: SPR (Biacore), anti-Fc capture, ligand in flow
BMP5 [16] = target: T7, BMP5; assay: SPR (Biacore), anti-Fc capture, ligand in flow
Protocol: A Biacore™-based binding assay was used to compare ligand binding selectivity of the ActRIIB-Fc:ALK7-Fc heterodimeric complex described above with that of ActRIIB-Fc and ALK7-Fc homodimeric complexes. The ActRIIB-Fc:ALK7-Fc heterodimer, ActRIIB-Fc homodimer, and ALK7-Fc homodimer were independently captured onto the system using an anti-Fc antibody. Ligands were injected and allowed to flow over the captured receptor protein. Results are summarized in the table below, in which ligand off-rates (kd) most indicative of effective ligand traps are denoted by bold font.

Measured: binding

B1: ActRIIB-Fc homodimer (Fc fusion, human, UniProt Q13705 19-137, looked up, not shown: a dimerising Fc or GST)
chain: SGRGEAETRECIYYNANWELERTNQSGLERCEGEQDKRLHCYASWRNSSGTIELVKKGCWLDDFNCYDRQECVATEENPQVYFCCCEGNFCNERFTHLPEAGGPEVTYEPPPTAPTLLT
notes: extracellular domain; also called unmodified ActRIIB-Fc homodimer; ActRIIB-Fc:ActRIIB-Fc homodimer
binds: BMP9 [1] | BMP10 [2] | activin B [3] | GDF3 [4] | GDF8 [5] | GDF11 [6] | BMP5 [7] | BMP6 [8] | BMP9 [9] | BMP10 [10] | activin B [11] | GDF3 [12] | GDF8 [13] | GDF11 [14] | BMP6 [15] | BMP5 [16]
